# Test results from the supplement of paper PMC10849652.
# Chains of the proteins cited; added tags and fusions are not shown. Lines headed by an entry give the natural chain unless they say otherwise; changes in a name come on top.
# UniProt Q9BXJ8: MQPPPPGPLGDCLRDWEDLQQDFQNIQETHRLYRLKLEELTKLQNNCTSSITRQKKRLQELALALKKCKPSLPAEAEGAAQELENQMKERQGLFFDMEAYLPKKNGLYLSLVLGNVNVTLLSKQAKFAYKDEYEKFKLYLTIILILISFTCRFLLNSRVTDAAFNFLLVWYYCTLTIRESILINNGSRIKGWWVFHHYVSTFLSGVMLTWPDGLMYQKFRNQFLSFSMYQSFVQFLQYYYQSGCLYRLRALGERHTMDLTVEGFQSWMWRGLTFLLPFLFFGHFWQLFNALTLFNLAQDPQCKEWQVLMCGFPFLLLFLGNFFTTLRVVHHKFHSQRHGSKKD
# UniProt Q13829: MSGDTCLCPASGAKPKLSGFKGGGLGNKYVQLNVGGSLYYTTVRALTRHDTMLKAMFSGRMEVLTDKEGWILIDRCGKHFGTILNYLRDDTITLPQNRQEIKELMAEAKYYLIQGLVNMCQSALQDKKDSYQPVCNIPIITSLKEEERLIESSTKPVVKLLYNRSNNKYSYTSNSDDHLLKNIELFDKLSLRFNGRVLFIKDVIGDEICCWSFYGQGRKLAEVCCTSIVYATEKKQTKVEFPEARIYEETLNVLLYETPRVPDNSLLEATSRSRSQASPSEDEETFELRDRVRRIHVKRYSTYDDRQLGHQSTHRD
# UniProt Q12893: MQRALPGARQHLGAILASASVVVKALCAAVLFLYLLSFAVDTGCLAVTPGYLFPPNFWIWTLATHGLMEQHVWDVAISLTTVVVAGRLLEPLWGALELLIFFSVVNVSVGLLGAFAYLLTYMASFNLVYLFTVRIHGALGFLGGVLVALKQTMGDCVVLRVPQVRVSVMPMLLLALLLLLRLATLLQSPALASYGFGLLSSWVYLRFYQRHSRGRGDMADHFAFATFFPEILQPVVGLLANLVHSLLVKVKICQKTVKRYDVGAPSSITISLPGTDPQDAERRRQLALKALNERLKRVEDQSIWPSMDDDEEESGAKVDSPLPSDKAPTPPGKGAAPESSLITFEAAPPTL
# UniProt Q9HD45: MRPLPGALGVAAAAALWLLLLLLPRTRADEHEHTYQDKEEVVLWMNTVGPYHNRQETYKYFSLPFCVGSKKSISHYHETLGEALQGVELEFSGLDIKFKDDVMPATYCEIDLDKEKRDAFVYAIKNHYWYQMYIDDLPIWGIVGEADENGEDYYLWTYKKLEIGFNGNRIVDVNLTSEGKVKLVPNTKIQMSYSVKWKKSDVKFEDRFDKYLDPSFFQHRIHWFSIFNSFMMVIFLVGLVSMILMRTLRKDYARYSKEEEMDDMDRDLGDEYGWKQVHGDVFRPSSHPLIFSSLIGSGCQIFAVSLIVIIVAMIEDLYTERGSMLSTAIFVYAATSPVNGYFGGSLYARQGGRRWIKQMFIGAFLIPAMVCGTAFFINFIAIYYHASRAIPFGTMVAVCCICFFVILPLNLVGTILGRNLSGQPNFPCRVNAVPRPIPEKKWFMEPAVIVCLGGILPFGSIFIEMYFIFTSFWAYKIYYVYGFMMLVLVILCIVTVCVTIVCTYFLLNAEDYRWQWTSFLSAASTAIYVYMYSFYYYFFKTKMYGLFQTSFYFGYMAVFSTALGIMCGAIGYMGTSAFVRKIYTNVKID
# UniProt Q9Y320, whole entry, looked up: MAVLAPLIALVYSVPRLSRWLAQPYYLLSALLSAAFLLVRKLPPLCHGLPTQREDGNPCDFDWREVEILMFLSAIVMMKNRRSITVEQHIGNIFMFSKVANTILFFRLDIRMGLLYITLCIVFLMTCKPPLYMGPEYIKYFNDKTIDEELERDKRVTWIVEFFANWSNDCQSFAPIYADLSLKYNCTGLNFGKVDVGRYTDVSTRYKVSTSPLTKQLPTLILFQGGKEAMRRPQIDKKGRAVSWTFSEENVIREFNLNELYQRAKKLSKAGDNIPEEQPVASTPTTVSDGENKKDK
# UniProt Q9UKI8: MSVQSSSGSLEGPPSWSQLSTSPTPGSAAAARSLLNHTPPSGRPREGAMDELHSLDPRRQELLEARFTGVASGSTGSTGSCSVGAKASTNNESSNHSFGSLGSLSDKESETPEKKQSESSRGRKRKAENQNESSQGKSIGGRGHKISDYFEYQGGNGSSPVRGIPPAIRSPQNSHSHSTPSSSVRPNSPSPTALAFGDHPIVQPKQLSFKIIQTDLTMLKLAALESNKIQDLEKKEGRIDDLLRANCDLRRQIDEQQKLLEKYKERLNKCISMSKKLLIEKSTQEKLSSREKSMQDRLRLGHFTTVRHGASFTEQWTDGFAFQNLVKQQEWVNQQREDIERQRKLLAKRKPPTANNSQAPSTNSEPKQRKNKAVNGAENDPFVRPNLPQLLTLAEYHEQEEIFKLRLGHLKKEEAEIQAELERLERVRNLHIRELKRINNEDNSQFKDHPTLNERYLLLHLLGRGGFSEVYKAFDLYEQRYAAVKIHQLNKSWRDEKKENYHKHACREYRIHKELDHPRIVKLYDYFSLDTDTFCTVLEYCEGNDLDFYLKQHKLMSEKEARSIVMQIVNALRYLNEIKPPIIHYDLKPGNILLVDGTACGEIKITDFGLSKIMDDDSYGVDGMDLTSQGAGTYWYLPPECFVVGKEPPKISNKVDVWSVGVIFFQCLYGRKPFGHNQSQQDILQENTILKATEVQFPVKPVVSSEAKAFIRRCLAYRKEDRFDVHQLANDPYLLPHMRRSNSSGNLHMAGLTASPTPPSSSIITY
# UniProt Q9H0R3: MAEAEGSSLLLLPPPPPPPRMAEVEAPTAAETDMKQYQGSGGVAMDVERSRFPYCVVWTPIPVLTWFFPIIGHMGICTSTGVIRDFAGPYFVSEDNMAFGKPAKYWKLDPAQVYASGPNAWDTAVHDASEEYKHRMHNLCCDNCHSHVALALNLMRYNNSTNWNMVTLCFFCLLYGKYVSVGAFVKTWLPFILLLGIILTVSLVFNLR
# UniProt Q7Z7N9: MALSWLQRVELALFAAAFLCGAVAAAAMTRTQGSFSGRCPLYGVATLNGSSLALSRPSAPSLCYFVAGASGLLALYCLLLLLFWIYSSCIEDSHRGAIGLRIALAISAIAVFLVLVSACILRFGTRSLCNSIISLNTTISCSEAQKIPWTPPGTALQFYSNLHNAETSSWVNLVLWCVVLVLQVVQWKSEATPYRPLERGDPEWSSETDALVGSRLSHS
# UniProt Q9H061: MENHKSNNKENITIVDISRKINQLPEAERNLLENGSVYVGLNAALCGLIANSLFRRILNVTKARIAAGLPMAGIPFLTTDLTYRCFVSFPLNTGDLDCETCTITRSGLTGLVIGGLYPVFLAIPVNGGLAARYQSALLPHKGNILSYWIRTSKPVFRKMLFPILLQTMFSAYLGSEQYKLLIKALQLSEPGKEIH
# UniProt Q6NUQ4: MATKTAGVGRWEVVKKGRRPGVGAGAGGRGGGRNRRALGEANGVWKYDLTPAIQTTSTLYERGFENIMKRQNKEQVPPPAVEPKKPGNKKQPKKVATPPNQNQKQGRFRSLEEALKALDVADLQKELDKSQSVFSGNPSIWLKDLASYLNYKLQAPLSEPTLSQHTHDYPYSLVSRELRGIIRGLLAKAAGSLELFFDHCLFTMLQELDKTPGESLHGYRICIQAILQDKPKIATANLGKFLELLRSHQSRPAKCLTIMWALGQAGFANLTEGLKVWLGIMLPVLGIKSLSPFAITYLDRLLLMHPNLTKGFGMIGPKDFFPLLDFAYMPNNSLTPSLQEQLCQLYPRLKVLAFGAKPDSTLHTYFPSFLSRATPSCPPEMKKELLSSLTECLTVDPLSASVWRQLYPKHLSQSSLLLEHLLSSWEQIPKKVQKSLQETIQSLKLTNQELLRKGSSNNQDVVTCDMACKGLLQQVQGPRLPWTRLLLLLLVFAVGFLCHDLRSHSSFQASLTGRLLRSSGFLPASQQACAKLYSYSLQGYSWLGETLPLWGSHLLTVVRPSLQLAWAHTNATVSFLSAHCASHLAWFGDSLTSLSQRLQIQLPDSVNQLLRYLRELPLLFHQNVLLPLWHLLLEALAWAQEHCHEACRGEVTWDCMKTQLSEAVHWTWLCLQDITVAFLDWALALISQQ
# UniProt O95379: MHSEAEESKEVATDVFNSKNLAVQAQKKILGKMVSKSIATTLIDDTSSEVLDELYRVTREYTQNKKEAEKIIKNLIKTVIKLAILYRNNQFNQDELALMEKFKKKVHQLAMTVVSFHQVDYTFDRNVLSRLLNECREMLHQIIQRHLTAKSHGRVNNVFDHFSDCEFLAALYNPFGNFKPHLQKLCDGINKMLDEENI
# UniProt P82094: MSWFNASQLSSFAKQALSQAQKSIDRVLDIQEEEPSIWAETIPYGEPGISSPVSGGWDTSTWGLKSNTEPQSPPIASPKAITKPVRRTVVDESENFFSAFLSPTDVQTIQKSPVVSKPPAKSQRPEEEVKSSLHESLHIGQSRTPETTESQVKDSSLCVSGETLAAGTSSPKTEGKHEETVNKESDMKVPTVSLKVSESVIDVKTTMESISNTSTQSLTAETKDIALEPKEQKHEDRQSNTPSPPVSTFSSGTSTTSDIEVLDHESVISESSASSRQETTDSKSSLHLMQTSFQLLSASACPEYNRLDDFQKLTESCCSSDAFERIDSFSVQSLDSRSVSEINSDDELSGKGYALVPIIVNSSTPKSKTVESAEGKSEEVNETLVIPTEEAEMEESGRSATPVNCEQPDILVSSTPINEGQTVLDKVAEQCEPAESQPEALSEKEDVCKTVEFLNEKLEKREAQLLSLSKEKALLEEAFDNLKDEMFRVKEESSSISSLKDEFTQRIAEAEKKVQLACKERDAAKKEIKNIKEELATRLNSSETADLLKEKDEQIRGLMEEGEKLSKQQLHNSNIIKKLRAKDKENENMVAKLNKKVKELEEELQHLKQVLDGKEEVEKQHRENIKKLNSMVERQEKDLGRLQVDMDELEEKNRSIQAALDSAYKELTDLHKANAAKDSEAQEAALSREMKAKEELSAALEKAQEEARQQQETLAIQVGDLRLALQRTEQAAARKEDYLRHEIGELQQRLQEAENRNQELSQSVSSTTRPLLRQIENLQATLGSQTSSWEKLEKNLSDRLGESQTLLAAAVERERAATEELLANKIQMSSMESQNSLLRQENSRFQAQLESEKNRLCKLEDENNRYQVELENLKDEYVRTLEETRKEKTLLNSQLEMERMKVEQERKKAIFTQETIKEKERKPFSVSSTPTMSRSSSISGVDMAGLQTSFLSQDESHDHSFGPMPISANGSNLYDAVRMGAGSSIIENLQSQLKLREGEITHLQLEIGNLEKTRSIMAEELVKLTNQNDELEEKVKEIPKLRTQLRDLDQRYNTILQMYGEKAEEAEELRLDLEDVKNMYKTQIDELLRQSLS
# UniProt Q5T292: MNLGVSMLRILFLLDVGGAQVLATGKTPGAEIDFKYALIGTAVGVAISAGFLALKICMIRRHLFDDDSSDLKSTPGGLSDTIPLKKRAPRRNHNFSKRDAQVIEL
# UniProt Q9Y2Y6: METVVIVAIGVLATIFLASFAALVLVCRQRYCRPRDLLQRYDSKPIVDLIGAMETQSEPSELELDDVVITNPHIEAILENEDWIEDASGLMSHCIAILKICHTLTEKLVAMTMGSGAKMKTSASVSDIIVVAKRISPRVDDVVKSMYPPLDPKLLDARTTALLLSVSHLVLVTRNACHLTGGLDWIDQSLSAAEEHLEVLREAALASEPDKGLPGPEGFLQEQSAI
# UniProt Q5SNT2: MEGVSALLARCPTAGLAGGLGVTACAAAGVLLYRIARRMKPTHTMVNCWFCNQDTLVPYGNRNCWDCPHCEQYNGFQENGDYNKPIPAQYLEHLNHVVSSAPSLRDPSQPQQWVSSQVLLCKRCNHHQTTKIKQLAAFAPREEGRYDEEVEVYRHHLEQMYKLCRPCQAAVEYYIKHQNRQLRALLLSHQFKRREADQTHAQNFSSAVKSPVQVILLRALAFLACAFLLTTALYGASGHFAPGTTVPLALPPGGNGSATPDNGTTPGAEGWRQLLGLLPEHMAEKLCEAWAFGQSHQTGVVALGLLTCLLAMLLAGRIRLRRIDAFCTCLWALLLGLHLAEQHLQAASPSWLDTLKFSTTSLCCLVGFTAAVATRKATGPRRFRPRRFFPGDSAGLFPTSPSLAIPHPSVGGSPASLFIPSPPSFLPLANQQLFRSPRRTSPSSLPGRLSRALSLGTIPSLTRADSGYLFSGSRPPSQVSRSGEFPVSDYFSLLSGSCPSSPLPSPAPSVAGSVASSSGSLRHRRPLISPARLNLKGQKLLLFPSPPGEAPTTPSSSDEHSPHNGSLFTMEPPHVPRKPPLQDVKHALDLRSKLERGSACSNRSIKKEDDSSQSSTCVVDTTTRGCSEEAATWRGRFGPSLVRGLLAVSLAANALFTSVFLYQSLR
# UniProt Q8NCS4: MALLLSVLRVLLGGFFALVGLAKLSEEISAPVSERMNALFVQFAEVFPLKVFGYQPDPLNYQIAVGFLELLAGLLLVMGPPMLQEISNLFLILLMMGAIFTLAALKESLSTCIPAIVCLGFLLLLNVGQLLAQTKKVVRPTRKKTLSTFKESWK
# This is one part of the list. Residues, ends and D or L forms follow the SMILES beside them. *: point of attachment. Cbz = O=C(OCc1ccccc1)*
# Columns and labels:
# Assay in all cases: log2 fold change, soluble protein after heating vs DMSO (PISA); higher = thermal stabilisation; K562 cells, 10 uM, 30 min; active = over 0.2 and 3.5 SD of the protein, either way, in both replicates (recomputed)
# erlotinib = compound: C#Cc1cccc(Nc2ncnc3cc(OCCOC)c(OCCOC)cc23)c1 [erlotinib]
# Method in brief: (§1)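 K562 cells at 2×10^6 cells/mL were given 10 μM compound for 30 min. Aliquots then went through 3 min of heating across 48°C-58°C, were pooled, and were extracted in PBS with 0.5% NP-40 at 4°C, and the supernatant after 21,000xg for 90 min was quantified by TMTpro 16plex LC-MS/MS with channel sums equalised. Thermal stability relative to control samples, from duplicates, is given as log2 fold change.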
# [1] = compound: C/C(=N\NC(=O)C1=CC(=CC=C1)S(=O)(=O)N2CCOCC2)/C3=C(C=CC(=C3)Cl)O
# Method in brief: as §1
# [2] = compound: C1=CC(=C(C=C1Cl)C2=NC3=NC=CN=C3C(=N2)NC4=CC=NC=C4)F
# Method in brief: as §1
# [3] = compound: C1=CC(=CC=C1C2=NC3=C(N2)C=C(C=C3)C(=O)N)OC4=CC=C(C=C4)Cl
# Method in brief: as §1
# [4] = compound: C1=CC2=C(C=CC(=C2)/C=C\3/C(=O)NC(=NCC4=CC=CS4)S3)N=C1
# Method in brief: as §1
# [5] = compound: C1=CC2=NC=CN=C2C=C1/C=C/3\C(=O)NC(=O)S3
# Method in brief: as §1
# [6] = compound: C1=CC=C(C=C1)C2=NC(=C(N2)C3=CC=NC=C3)C4=CC(=C(C=C4)Cl)O
# Method in brief: as §1
# [7] = compound: C1=CC=C2C(=C1)C3=NNC4=CC=CC(=C43)C2=O
# Method in brief: as §1
# [8] = compound: C1CCN(C1)C(=O)NC2=CC=CC(=C2)NC3=NC=C(C(=N3)NCCC4=CN=CN4)Br
# Method in brief: as §1
# [9] = compound: C1CN(CCC1(CC2=CC=C(C=C2)Cl)N)C3=NC=NC4=C3C=CN4
# Method in brief: as §1
# IRAK-1-4 Inhibitor I = compound: C1COCCN1CCN2C3=CC=CC=C3N=C2NC(=O)C4=CC(=CC=C4)[N+](=O)[O-] [IRAK-1-4 Inhibitor I]
# Method in brief: as §1
# ibrutinib = compound: C=CC(=O)N1CCC[C@@H](n2nc(-c3ccc(Oc4ccccc4)cc3)c3c(N)ncnc32)C1 [ibrutinib]
# Method in brief: as §1
# [10] = compound: CC(=O)c1cnc2ccc(-c3cc(Cl)c(O)c(Cl)c3)nc2c1N[C@H]1CC[C@H](CN(C)C)CC1
# Method in brief: as §1
# ralimetinib = compound: CC(C)(C)Cn1c(N)nc2ccc(-c3[nH]c(C(C)(C)C)nc3-c3ccc(F)cc3)nc21 [ralimetinib]
# Method in brief: as §1
# [11] = compound: CC(C)(O)CC(=O)NCCn1ccc2ncnc(Nc3ccc(Oc4cccc(C(F)(F)F)c4)c(Cl)c3)c21
# Method in brief: as §1
# [12] = compound: CC(C)C1=C2N=C(C=C(N2N=C1)NCC3=CC=CC=C3)NCCCCCCN
# Method in brief: as §1
# [13] = compound: CC(C)C[C@@H](C=O)NC(=O)[C@H](CC(C)C)NC(=O)[C@H](CC(C)C)NC(=O)OCc1ccccc1
# Method in brief: as §1
# pinometostat = compound: CC(C)N(C[C@H]1O[C@@H](n2cnc3c(N)ncnc32)[C@H](O)[C@@H]1O)[C@H]1C[C@@H](CCc2nc3cc(C(C)(C)C)ccc3[nH]2)C1 [pinometostat]
# Method in brief: as §1
# [14] = compound: CC1=C(C2=C(C=C1)C(=O)C3=CC=CC=C3N2CCCN)C
# Method in brief: as §1
# [15] = compound: CC1=C(C(CC(=O)N1)C2=CC=C(C=C2)C(F)(F)F)C(=O)NC3=C(C=C4C(=C3)C=NN4)F
# Method in brief: as §1
Target,log2 fold change (erlotinib),log2 fold change [1],log2 fold change [2],log2 fold change [3],log2 fold change [4],log2 fold change [5],log2 fold change [6],log2 fold change [7],log2 fold change [8],log2 fold change [9],log2 fold change (IRAK-1-4 Inhibitor I),log2 fold change (ibrutinib),log2 fold change [10],log2 fold change (ralimetinib),log2 fold change [11],log2 fold change [12],log2 fold change [13],log2 fold change (pinometostat),log2 fold change [14],log2 fold change [15]
TMEM120A (UniProt Q9BXJ8),inactive: -0.036,inactive: 0.109,inactive: 0.174,inactive: 0.053,inactive: 0,inactive: 0.236,inactive: -0.02,inactive: -0.036,inactive: -0.071,inactive: 0.1,inactive: -0.066,inactive: -0.183,inactive: -0.068,inactive: -0.003,inactive: -0.429,inactive: -0.006,inactive: -0.078,inactive: 0.093,inactive: 0.051,–
TNFAIP1 (UniProt Q13829),inactive: -0.021,inactive: -0.019,inactive: 0.084,inactive: 0.002,inactive: 0.015,inactive: 0.108,inactive: -0.112,inactive: 0.052,inactive: 0.041,inactive: 0.001,inactive: 0.042,inactive: 0.018,inactive: -0.118,inactive: -0.036,inactive: -0.05,inactive: 0.301,inactive: 0.026,inactive: 0.015,inactive: -0.15,inactive: -0.037
TMEM115 (UniProt Q12893),inactive: 0.035,inactive: 0.044,inactive: 0.059,inactive: 0.025,inactive: 0.026,inactive: 0.019,inactive: -0.027,inactive: -0.051,inactive: 0.006,inactive: 0.089,inactive: 0.056,inactive: 0.045,inactive: 0.046,inactive: -0.052,inactive: 0.014,inactive: -0.127,inactive: 0.036,inactive: -0.012,inactive: -0.007,inactive: -0.086
TM9SF3 (UniProt Q9HD45),inactive: -0.002,inactive: 0.03,inactive: 0.051,inactive: -0.011,inactive: -0.005,inactive: -0.041,inactive: 0.084,inactive: -0.011,inactive: 0.009,inactive: 0.031,inactive: 0.014,inactive: 0.008,inactive: 0.017,inactive: 0.01,inactive: -0.035,inactive: 0.093,inactive: -0.123,inactive: 0.005,inactive: 0.101,inactive: 0.029
TMX2 (UniProt Q9Y320),inactive: 0.047,inactive: 0.001,inactive: 0.03,inactive: -0.003,inactive: 0.048,inactive: 0.016,inactive: 0.041,inactive: -0.012,inactive: -0.032,inactive: -0.028,inactive: 0.016,inactive: 0.022,inactive: 0.033,inactive: -0.048,inactive: -0.044,inactive: -0.148,inactive: 0.038,inactive: -0.039,inactive: 0.014,inactive: -0.017
TLK1 (UniProt Q9UKI8),inactive: 0.012,inactive: 0.038,inactive: 0.041,inactive: -0.012,inactive: 0.042,inactive: 0.005,inactive: 0.01,inactive: -0.034,inactive: -0.032,inactive: -0.014,inactive: 0.027,inactive: -0.003,inactive: -0.089,inactive: 0.02,inactive: -0.032,inactive: -0.064,inactive: -0.041,inactive: -0.041,active: 0.218,–
TMEM222 (UniProt Q9H0R3),inactive: -0.009,inactive: 0.092,inactive: -0.053,inactive: 0.043,inactive: 0.037,inactive: 0.092,inactive: -0.02,inactive: -0.005,inactive: -0.116,inactive: 0.034,inactive: 0.18,inactive: 0.096,inactive: -0.265,inactive: -0.087,inactive: -0.128,inactive: 0.026,inactive: -0.119,inactive: -0.008,inactive: 0.148,inactive: 0.039
TMPO (UniProt P42167),inactive: -0.023,inactive: -0.017,inactive: 0.016,inactive: 0.005,inactive: 0,inactive: 0.018,inactive: -0.025,inactive: -0.07,inactive: -0.034,inactive: 0.062,inactive: 0.004,inactive: -0.009,inactive: 0.091,inactive: -0.024,inactive: -0.022,inactive: 0.015,inactive: -0.007,inactive: 0.041,inactive: -0.02,inactive: 0.099
TMEM179B (UniProt Q7Z7N9),inactive: 0.042,inactive: -0.016,inactive: 0.073,inactive: 0.032,inactive: -0.009,inactive: 0.034,inactive: -0.107,inactive: -0.032,inactive: -0.165,inactive: -0.005,inactive: 0.04,inactive: -0.05,inactive: -0.061,inactive: -0.008,inactive: -0.24,inactive: -0.011,inactive: -0.021,inactive: -0.024,inactive: 0.019,–
TMEM126A (UniProt Q9H061),inactive: -0.004,inactive: -0.009,inactive: 0.018,inactive: 0.002,inactive: 0.037,inactive: 0.022,inactive: 0.016,inactive: 0.006,inactive: 0.016,inactive: 0.021,inactive: 0.032,inactive: 0.038,inactive: 0.023,inactive: -0.049,inactive: 0.002,inactive: -0.029,inactive: 0.01,inactive: -0.066,inactive: 0.007,inactive: -0.022
TMEM214 (UniProt Q6NUQ4),inactive: -0.068,inactive: 0.016,inactive: -0.019,inactive: 0.001,inactive: 0.015,inactive: 0.017,inactive: -0.044,inactive: -0.025,inactive: 0.009,inactive: -0.088,inactive: -0.076,inactive: -0.063,inactive: 0.028,inactive: -0.03,inactive: 0.019,inactive: 0.066,inactive: 0.044,inactive: 0.073,inactive: 0.074,–
TNFAIP8 isoform 4 (UniProt O95379),inactive: 0.019,inactive: 0.071,inactive: 0.087,inactive: -0.028,inactive: 0.039,inactive: 0.017,inactive: -0.015,inactive: -0.07,inactive: 0.003,inactive: 0.023,inactive: -0.018,inactive: -0.036,inactive: -0.036,inactive: 0,inactive: -0.037,inactive: -0.075,inactive: -0.047,inactive: -0.065,inactive: -0.037,–
TMEM70 (UniProt Q9BUB7),inactive: -0.286,inactive: 0.03,inactive: 0.023,inactive: 0.257,inactive: 0.008,inactive: -0.09,inactive: -0.063,inactive: -0.039,inactive: -0.007,inactive: 0.053,inactive: 0.07,inactive: 0.068,inactive: -0.034,inactive: -0.044,inactive: -0.095,inactive: 0.13,inactive: 0.028,inactive: 0.019,inactive: 0.086,–
TMF1 (UniProt P82094),inactive: -0.032,inactive: -0.021,inactive: 0.017,inactive: 0.013,inactive: 0.014,inactive: 0.059,inactive: -0.047,inactive: -0.061,inactive: -0.008,inactive: -0.012,inactive: 0.025,inactive: 0.007,inactive: 0.009,inactive: -0.029,inactive: 0.035,inactive: 0.058,inactive: 0.022,inactive: -0.021,inactive: -0.037,inactive: 0
TMEM273 isoform 2 (UniProt Q5T292),–,inactive: -0.037,–,–,inactive: 0.218,–,–,inactive: -0.017,inactive: 0.169,inactive: -0.14,–,–,inactive: -0.101,–,–,–,–,–,inactive: -0.042,inactive: 0.053
TMEM98 (UniProt Q9Y2Y6),–,–,–,–,–,inactive: 0.074,inactive: -0.153,–,–,–,–,inactive: -0.11,–,inactive: 0.069,–,–,inactive: 0.065,–,–,inactive: -0.155
TMEM201 (UniProt Q5SNT2),inactive: 0.087,–,inactive: 0,inactive: -0.01,–,inactive: 0.127,inactive: 0.054,–,inactive: -0.024,inactive: 0.01,–,inactive: 0.176,–,inactive: -0.043,inactive: -0.001,inactive: -0.206,inactive: -0.068,–,inactive: 0.143,inactive: -0.337
TMEM35B (UniProt Q8NCS4),inactive: -0.031,–,–,inactive: -0.159,–,inactive: -0.06,–,–,inactive: -0.138,inactive: -0.04,inactive: -0.025,inactive: -0.085,–,–,–,inactive: -0.004,–,inactive: 0.274,inactive: 0.064,inactive: -0.013

# Whole records as entered above. Order of values: log2 fold change (erlotinib)	log2 fold change [1]	log2 fold change [2]	log2 fold change [3]	log2 fold change [4]	log2 fold change [5]	log2 fold change [6]	log2 fold change [7]	log2 fold change [8]	log2 fold change [9]	log2 fold change (IRAK-1-4 Inhibitor I)	log2 fold change (ibrutinib)	log2 fold change [10]	log2 fold change (ralimetinib)	log2 fold change [11]	log2 fold change [12]	log2 fold change [13]	log2 fold change (pinometostat)	log2 fold change [14]	log2 fold change [15]
# TMEM98 (UniProt Q9Y2Y6) as listed: –	–	–	–	–	inactive: 0.074	inactive: -0.153	–	–	–	–	inactive: -0.11	–	inactive: 0.069	–	–	inactive: 0.065	–	–	inactive: -0.155
# TMEM273 isoform 2 (UniProt Q5T292) as listed: –	inactive: -0.037	–	–	inactive: 0.218	–	–	inactive: -0.017	inactive: 0.169	inactive: -0.14	–	–	inactive: -0.101	–	–	–	–	–	inactive: -0.042	inactive: 0.053
